These are yes or no findings as the source states them, for the method shown. Binding seen in cells or lysates may run through a third protein. A yes stands for co-enrichment or nearness to the bait. Other partners may have been found. Blank lines part the entries; values can stand above or below the binder they belong to.
Target: γ-tubulin (Xenopus laevis) (X. laevis (endogenous in egg extract)) (UniProt P23330)
Test: affinity purification with mass spectrometry; γ-TuRC-capped MTs from Ran(Q69L)-induced X. laevis egg extract, Paclitaxel-stabilised, pelleted, shortened, held on anti-γ-tubulin antibody coupled to Dynabeads Protein A, washed with BRB80 with 100 mM NaCl, eluted with γ-tubulin C-terminal peptide; LC-MS/MS

binding: binds
B1: HAUS8 (Augmin subunit, Xenopus laevis) (protein, UniProt Q0IHJ3 1-367)
chain: MSEAGVAPIEDGSQNSSGGSSGDAALKKSKGGAKVVKSRYMQIGRSKVSKNSLANTTVCSGGKVPERGSGGTPTRRSLAPHKAKITAAVPLPALDGSIFTKEDLQSTLLDGHRIARPDLDLSVINDRTLQKITPRPVVTSEQKKPKRDTTPVNLVPEDMVEMIESQTLLLTYLTIKMQKNLFRLEEKAERNLLLVNDQKDQLQETIHMMKRDLTLLQREERLRDLIEKQDEVLTPVVTSKDPFKDNYTTFATALDSTRHQLAIKNIHITGNRHRYLEELQKHLAITKSLLEEIMPSHASENAESFDTIKDLENIVLKTDEELARSFRQILDLSFKVNKEISLQSQKAVEETCESALVRQWYFDGSLP

binding: binds
B2: HAUS3 (Augmin subunit, Xenopus laevis) (protein, UniProt Q6DCY9 1-597)
chain: MSGGDRFVQTLQKLNYPKGAQLDGEDFDWLFEAVDLKPFLDWFCSAASEQNVVPDEKLQAFNTLKESGKPVLDEKALDEVLKTFSISKVPAIEEVAIEKLEEEVKALQKQKNLHIRRRNKLQMVESGNRQMCLKSKDKEEETGRAFQEVLHLLRVTNKKLNHELQSIVNGVQTLMSFFSTPETACELSSQPIFLSQLLLDKYLSLEEQSTAALTSFTKEHFFEGMSKFVEGSDENFQLVQLNVNSFGEDGTTEDKCKEMMRLQLAYICAKHKLIQMKAKSASLKVGLQWAENNASVVQDKASQKEENLKVRITSLKNETLQIENHTNSISNEKLPGLVRDNAQLLNMPIVKGDYDLQMAHQTSCSSRQDLVCDHLMKQKASFELLQLGYELELRKHRDVYRELGSIVQELKESGDKLEERLTMLSDVNLLSASKPRSNIDSKDLTSHRLYQLLDGDNTQKLFRTYDGLESVAQKLSQDIASMRDQLEVSEQEHSLLLSKLDSHLKELRDFMYPEGNTLMLTTPELSGEFHQLGSQLEKLNHITVEILGDLQLKRKMLESNKLQQIEKQLYVYFFQNEEQLKSIVGKLEAQTGGGSSA

— PMC11099078
